# Experimental data taken from ChEMBL document CHEMBL4513141, “CO-ADD screening of NIH (USA) - Clinical Collection” (2021).
# This is one part of the list. Entries with a potency or affinity are not part of this list.
# System: Acinetobacter baumannii
# Conditions: Concentration 20 uM; ASSAY_TEST Inhibition of Bacterial Growth; detection method Absorption (OD600); MEDIA CAMHB; plate type 384well; NBS; CORNING #3640; time 18 hr
row,Compound,Inhibition
1,NC(=O)N1c2ccccc2C=Cc2ccccc21 [CARBAMAZEPINE],21.57%
2,Cc1cccc(CN2CCN(C(c3ccccc3)c3ccc(Cl)cc3)CC2)c1.Cl.Cl (stereo not drawn),25.5%
3,CCN1CC(CCN2CCOCC2)C(c2ccccc2)(c2ccccc2)C1=O.Cl (stereo not drawn),6.29%
4,CCCN[C@H]1CCc2nc(N)sc2C1 [PRAMIPEXOLE],8.28%
5,CC(=CCC1=C(C)C(=O)c2ccccc2C1=O)CCCC(C)CCCC(C)CCCC(C)C (stereo not drawn),-0.31%
6,CC(N/C(=N\C#N)Nc1ccncc1)C(C)(C)C.O (stereo not drawn),16.59%
7,C[C@]12C=CC(=O)C=C1CC[C@@H]1[C@@H]2C(=O)C[C@@]2(C)[C@H]1CC[C@]2(O)C(=O)CO [PREDNISONE],30.84%
8,Cc1cnc(NC(=O)C2=C(O)c3ccccc3S(=O)(=O)N2C)s1 [MELOXICAM],6.81%
9,Cl.O=C1CN2Cc3c(ccc(Cl)c3Cl)N=C2N1 [ANAGRELIDE HYDROCHLORIDE],21%
10,CN(Cc1cnc2nc(N)nc(N)c2n1)c1ccc(C(=O)N[C@@H](CCC(=O)O)C(=O)O)cc1.O,21.43%
11,C[n+]1ccccc1/C=N/O.[Cl-] [PRALIDOXIME CHLORIDE],13.89%
12,CNCC[C@H](Oc1cccc2ccccc12)c1cccs1.Cl [DULOXETINE HYDROCHLORIDE],15.34%
13,CNC(=C[N+](=O)[O-])NCCSCc1ccc(CN(C)C)o1.Cl [RANITIDINE HYDROCHLORIDE],8.18%
14,CC1=Nc2ccc(Cl)cc2S(=O)(=O)N1 [DIAZOXIDE],20.27%
15,O=C(NCCO[N+](=O)[O-])c1cccnc1 [NICORANDIL],32.42%
16,CC1CCN(CCCC(=O)c2ccc(F)cc2)CC1.Cl,6.18%
17,CN1CCC(=C2c3ccccc3CC(=O)c3sccc32)CC1.O=C(O)/C=C/C(=O)O [KETOTIFEN FUMARATE],11.38%
18,CC1Cc2ccccc2N1NC(=O)c1ccc(Cl)c(S(N)(=O)=O)c1 (stereo not drawn) [INDAPAMIDE],0.29%
19,CCc1c(C)[nH]c2c1C(=O)C(CN1CCOCC1)CC2.Cl (stereo not drawn) [MOLINDONE HYDROCHLORIDE],10.39%
20,Cc1ccc(Cl)c(Nc2ccccc2C(=O)[O-])c1Cl.O.[Na+] [MECLOFENAMATE SODIUM],24.06%
21,CC(C)NCC(O)COc1ccc(COCCOC(C)C)cc1.CC(C)NCC(O)COc1ccc(COCCOC(C)C)cc1.O=C(O)/C=C/C(=O)O (stereo not drawn) [BISOPROLOL FUMARATE],30.23%
22,CC(=O)O[C@]1(C(C)=O)CC[C@H]2[C@@H]3C=C(C)C4=CC(=O)CC[C@]4(C)[C@H]3CC[C@@]21C [MEGESTROL ACETATE],10.5%

# Looked up above:
# Inhibition with Cc1cnc(NC(=O)C2=C(O)c3ccccc3S(=O)(=O)N2C)s1 [MELOXICAM] is entered as 6.81%
# Inhibition with C[n+]1ccccc1/C=N/O.[Cl-] [PRALIDOXIME CHLORIDE] is entered as 13.89%
# Inhibition with Cc1cccc(CN2CCN(C(c3ccccc3)c3ccc(Cl)cc3)CC2)c1.Cl.Cl (stereo not drawn) is entered as 25.5%

# Later entries

row,Compound,Inhibition
1,CCCCN1CCCC1CNC(=O)c1cc(C#N)c2ccccc2c1OC (stereo not drawn) [NAFADOTRIDE],10.28%
2,COc1ccc(C2CNC(=O)C2)cc1OC1CCCC1 (stereo not drawn) [ROLIPRAM],23.36%
3,OC[C@H]1O[C@@H](Oc2cc(O)cc(/C=C/c3ccc(O)cc3)c2)[C@H](O)[C@@H](O)[C@@H]1O [PICEID],8.91%
4,CC1(C)C[C@@H]1C(=O)N/C(=C\CCCCSC[C@H](N)C(=O)O)C(=O)[O-].[Na+] [CILASTATIN SODIUM],6.76%
5,O=[N+]([O-])c1cccc2cn[nH]c12 [7-NITROINDAZOLE],29.85%
6,CCCNCC(O)COc1ccccc1C(=O)CCc1ccccc1 (stereo not drawn) [PROPAFENONE],18.62%
7,CN[C@@H]1[C@H](O)[C@H](NC)[C@H]2O[C@@]3(O)C(=O)C[C@@H](C)O[C@H]3O[C@@H]2[C@H]1O.Cl.Cl.Cl.O.O.O,33.48%
8,CCc1nn(CCCN2CCN(c3cccc(Cl)c3)CC2)c(=O)n1CCOc1ccccc1.Cl [NEFAZODONE HYDROCHLORIDE],7.37%
9,CN(C)c1nc(N(C)C)nc(N(C)C)n1 [ALTRETAMINE],14.75%
10,COCC1=C(C(=O)OC(C)OC(=O)OC(C)C)N2C(=O)[C@@H](NC(=O)/C(=N\OC)c3csc(N)n3)[C@H]2SC1 (stereo partly drawn) [CEFPODOXIME PROXETIL],8.65%
11,CC[C@]1(O)C[C@@H]2CN(CCc3c([nH]c4ccccc34)[C@@](C(=O)OC)(c3cc4c(cc3OC)N(C=O)[C@H]3[C@@](O)(C(=O)OC)[C@H](OC(C)=O)[C@]5(CC)C=CCN6CC[C@]43[C@@H]65)C2)C1.O=S(=O)(O)O,22.27%
12,CC(C)(C)NC(=O)[C@H]1CC[C@H]2[C@@H]3CC[C@H]4NC(=O)C=C[C@]4(C)[C@H]3CC[C@]12C [FINASTERIDE],11.13%
13,CC12CCC(=O)C=C1CCC1C2CCC2(C)C1CCC2(O)C(=O)CO (stereo not drawn),14.88%
14,Cc1cccc(C)c1NC(=O)C1CCCCN1C.Cl (stereo not drawn) [MEPIVACAINE HYDROCHLORIDE],31.45%
15,O=c1[nH]c(=O)n(C2CCCO2)cc1F (stereo not drawn) [TEGAFUR],30.31%
16,CCOC(=O)[C@H](CCc1ccccc1)N[C@H]1CCc2ccccc2N(CC(=O)O)C1=O.Cl [BENAZEPRIL HYDROCHLORIDE],20.8%
17,Cc1nc(=O)c2cc(CN(C)c3ccc(C(=O)N[C@@H](CCC(=O)O)C(=O)O)s3)ccc2[nH]1 [RALTITREXED],12.09%
18,CC(=O)OCC(CCn1cnc2cnc(N)nc21)COC(C)=O [FAMCICLOVIR],33.5%
19,CC(=O)O.CC(C)C[C@H](NC(=O)[C@@H](COC(C)(C)C)NC(=O)[C@H](Cc1ccc(O)cc1)NC(=O)[C@H](CO)NC(=O)[C@H](Cc1c[nH]c2ccccc12)NC(=O)[C@H](Cc1c[nH]cn1)NC(=O)[C@H]1CCC(=O)N1)C(=O)N[C@H](CCCNC(=N)N)C(=O)N1CCC[C@@H]1C(=O)NNC(N)=O,6.07%
20,CCCc1c(OCCCCc2nnn[nH]2)ccc(C(C)=O)c1O [TOMELUKAST],9.11%
21,C#C[C@]1(O)CC[C@H]2[C@@H]3[C@H](C)CC4=C(CCC(=O)C4)[C@H]3CC[C@@]21C [TIBOLONE],16.66%
